Where a name gives a salt, the structure may show the parent alone.
Tested on: mice with 2.5 mg/kg loperamide-induced constipation
Assay: Small intestinal propulsive rate of a charcoal solution in mice with 2.5 mg/kg loperamide-induced constipation, with positive controls (Example 2)
Format: in vivo, mouse
Settings: positive drugs intragastric: itopride 30.75, naloxone 5.0, domperidone 6.16, mosapride citrate 3.075 mg/kg; loperamide 2.5 mg/kg s.c.
From the text: 1.2 Experimental Animals Species: mouse Strains: C57BL/6 Gender and quantity: Female, 65 Animal week-age: 8-9 weeks Weight range: 19.0-25.0 g Animal sources: Shanghai Lingchang Biotechnology Co. LTD Animal certificate number: 2013001804393 2. Experimental Design and Methods 2.1 Test Grouping:
Experimental animals were randomly divided into 8 groups (8 animals per group) by the random number table method.
2.2 Reagent Preparation 1) 0.5% CMC—Na solution: 2.0 g of CMC—Na powder was weighed and 300 ml ultra-pure water was slowly added thereto; the mixture was subjected to magnetic stirring until it was completely dissolved to reach a constant volume of 400 ml, thereby preparing a clear solution of 0.5%, which was stored at 4° C. for later use. 2) 1% Tween-80 in saline: 40 ml saline was accurately measured using a measuring cylinder and added into a 50 ml centrifuge tube; 400 μl Tween-80 was measured using a pipette and added into the centrifuge tube; and the mixture was subjected to vortex oscillation to be homogeneous and was then placed at room temperature for later use. 3) 5% charcoal solution: 100 g of Arabic gum was accurately weighed and 800 ml water was added thereto; and the solution was boiled until it was transparent. 50 g of activated carbon powder was weighed and added into the above solution and the mixture was boiled for three times. […]

Compound: COc1ccc(C(=O)NCc2ccc(OCCN(C)C)cc2)cc1OC [Itopride hydrochloride]
- Length of the small intestine: 19.1 ± 1.1 cm
- weight: 22.5 ± 1.1 g
